Source: paper PMC11845725
These are yes or no findings as the source states them, for the method shown.

Target: TGM6-D3 (TGM6 domain 3) (Heligmosomoides polygyrus)
Assay: ITC; each type II receptor (ActRII, ActRIIB, BMPRII) titrated into TGM6-D3 or buffer alone; 25 mM HEPES, 150 mM NaCl, 0.05% NaN3, pH 7.4; both purified

| Binder | binding |
| --- | --- |
| ActRIIB extracellular domain (receptor, UniProt Q13705 19-137) SGRGEAETRECIYYNANWELERTNQSGLERCEGEQDKRLHCYASWRNSSGTIELVKKGCWLDDFNCYDRQECVATEENPQVYFCCCEGNFCNERFTHLPEAGGPEVTYEPPPTAPTLLT | no binding |
| BMPRII extracellular domain (receptor, UniProt Q13873 27-150) SQNQERLCAFKDPYQQDLGIGESRISHENGTILCSKGSTCYGLWEKSKGDINLVKQGCWSHIGDPQECHYEECVVTTTPPSIQNGTYRFCCCSTDLCNVNFTENFPPPDTTPLSPPHSFNRDET | no binding |
